Data reported in PMC10712050.
No constants are given. Whether binding was seen depends on the method and setting. In cells and extracts the contact can be indirect. Binding calls can cover weak binding; strength is not graded here.

The chains behind the UniProt entries cited, without tags or fusion partners. Where a name states a change or a piece, a line headed by the entry shows the natural chain unless it says otherwise.
UniProt P03953: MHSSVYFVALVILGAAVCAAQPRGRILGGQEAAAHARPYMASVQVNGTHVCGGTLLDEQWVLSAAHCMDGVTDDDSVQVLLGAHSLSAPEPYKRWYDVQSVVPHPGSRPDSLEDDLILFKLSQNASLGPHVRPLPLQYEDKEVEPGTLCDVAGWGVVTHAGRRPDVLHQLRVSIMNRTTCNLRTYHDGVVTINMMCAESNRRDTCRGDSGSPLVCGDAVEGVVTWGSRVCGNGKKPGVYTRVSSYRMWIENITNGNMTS

Columns and labels:
[1] = target: Adipsin expressed from adenovirus (Ad-Adipsin) in cardiomyocytes (UniProt P03953); assay: co-IP; cardiomyocytes infected with Ad-Adipsin, with or without PA challenge; protein A/G magnetic beads conjugated with anti-Adipsin and anti-Irak2 antibodies; immunoblot
[2] = target: GST-Adipsin fusion protein (UniProt P03953); assay: pull-down; GST-Adipsin immobilised on glutathione agarose (Pierce GST Protein Interaction Pull Down kit), prey from primary cardiomyocyte lysate, eluted complexes immunoblotted; only the target purified

binding [1]: binds
binding [2]: binds
B1: interleukin-1 receptor-associated kinase-like 2 (Irak2) (protein, UniProt Q8CFA1 1-622)
chain: MACYIYQLPSWVLDDLCRNIDTLSEWDWMQFASYVITDLTQLRKIKSMERVQGVSITRELLWWWSMRQATVQQLVDLLCHLELYRAAQIVLSWKPVPESTSPLPAFPEAVKPGAVATSRRNLKDEQEKVRPVKPRSLLDTGPIMAGAQRQRPCEMDAPCSLKTDAPDSPQSKYCSTSTSAPKQERLLGLPGDRLFWSEADVVQATEDFDQSHRISEGTFADIYQGQRNGVAFAFKKLREVAGSSPGSMDRFLQAEMQLCLRCCHANVLPLLGFCTGRQFHSLIYPYMANGSLHDRLWAQGNSDMLPWPQRASICSGLLLAVEHLHSLDIIHSNVKSANVLLDQHLNPKLAHPVAHPHPDNKKTKYTVMRTHLFQASAAYLPEHFIRVGQLTKQVDIFSCGIVLAEVLTGIPAMDKDRSPVYLKDLLLSEIPNSTSSVCSRKTSMGKAVVKEICQRHVEKRAGLLPEACEEAWATAVSVCLRRRNASVEEARVSLAGVEEQLRGQLSLPWSRVSEATGSSSNTPEETDDVDNSSLSVPSLVMMASCPGAASSPLFTGHGAAQPSTSGRQEADSSSEACTGPQTPQNATETSWKIEINEAKRRLMENIVLYKEERLDSSELFGP
